Laboratory results published in article PMC10166522.
Results are given in words; binding and its absence hold for the method and conditions named. Binding seen in cells or lysates may run through a third protein. Some results given as binding are weak or reduced against the parent protein; the word gives no strength. Where a sequence is shown, tags or fusion partners need not be part of it.

By UniProt entry, the sequences of proteins in these tests, tags left out.
UniProt Q8WQ99: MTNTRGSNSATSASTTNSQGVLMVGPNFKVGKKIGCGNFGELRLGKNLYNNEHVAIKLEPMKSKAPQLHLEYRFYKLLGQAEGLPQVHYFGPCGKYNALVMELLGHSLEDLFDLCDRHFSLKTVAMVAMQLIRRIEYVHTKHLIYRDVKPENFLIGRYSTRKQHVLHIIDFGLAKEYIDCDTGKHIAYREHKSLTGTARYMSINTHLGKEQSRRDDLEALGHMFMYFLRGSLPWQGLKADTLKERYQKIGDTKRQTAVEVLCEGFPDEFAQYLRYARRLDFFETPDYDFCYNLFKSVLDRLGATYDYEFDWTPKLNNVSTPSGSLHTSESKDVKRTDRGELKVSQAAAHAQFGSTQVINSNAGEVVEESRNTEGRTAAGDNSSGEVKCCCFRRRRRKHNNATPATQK
UniProt P78368: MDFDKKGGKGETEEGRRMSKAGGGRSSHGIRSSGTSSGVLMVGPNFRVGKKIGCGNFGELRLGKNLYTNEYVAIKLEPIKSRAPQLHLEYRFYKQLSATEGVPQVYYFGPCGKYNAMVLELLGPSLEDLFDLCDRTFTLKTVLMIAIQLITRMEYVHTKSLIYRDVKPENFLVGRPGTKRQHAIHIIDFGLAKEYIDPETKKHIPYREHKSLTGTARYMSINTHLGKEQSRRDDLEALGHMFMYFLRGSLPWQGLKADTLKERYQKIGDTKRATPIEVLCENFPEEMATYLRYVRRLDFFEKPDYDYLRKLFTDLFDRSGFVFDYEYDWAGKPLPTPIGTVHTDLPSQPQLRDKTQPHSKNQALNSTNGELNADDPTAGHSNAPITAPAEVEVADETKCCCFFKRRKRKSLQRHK

How the values were obtained:
[1] = target: T1, DUOXA2::HA fusion protein (human) (UniProt Q1HG44); assay: co-IP; HEK293T cells co-expressing both proteins, lysed in IP buffer; anti-HA antibody and protein A/G beads at 4°C overnight, 5 washes in TBST; blot with anti-FLAG and anti-HA
T1 sequence: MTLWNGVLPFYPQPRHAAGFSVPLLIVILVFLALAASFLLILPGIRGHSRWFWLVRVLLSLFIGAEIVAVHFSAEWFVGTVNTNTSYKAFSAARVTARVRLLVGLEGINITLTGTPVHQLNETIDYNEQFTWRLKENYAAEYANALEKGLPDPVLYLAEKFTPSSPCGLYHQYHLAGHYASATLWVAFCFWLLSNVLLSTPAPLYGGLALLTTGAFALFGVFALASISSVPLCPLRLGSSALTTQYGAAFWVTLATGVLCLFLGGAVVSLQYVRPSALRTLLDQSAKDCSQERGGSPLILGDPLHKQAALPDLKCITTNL

[2] = target: T2, DOXA-1::HA fusion protein (C. elegans) (UniProt P34298); assay: as above
T2 sequence: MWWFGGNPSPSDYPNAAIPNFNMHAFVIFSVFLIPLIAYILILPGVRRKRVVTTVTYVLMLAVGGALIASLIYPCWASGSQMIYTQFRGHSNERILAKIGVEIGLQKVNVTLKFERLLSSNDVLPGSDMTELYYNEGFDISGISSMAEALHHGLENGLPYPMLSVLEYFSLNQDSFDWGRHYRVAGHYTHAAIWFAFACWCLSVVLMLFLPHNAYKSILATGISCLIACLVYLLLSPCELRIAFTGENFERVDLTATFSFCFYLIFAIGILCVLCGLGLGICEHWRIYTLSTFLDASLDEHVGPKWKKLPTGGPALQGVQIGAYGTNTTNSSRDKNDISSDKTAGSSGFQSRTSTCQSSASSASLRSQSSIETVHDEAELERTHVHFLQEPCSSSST

[3] = target: His::TF::CSNK-1 fusion protein (C. elegans) (UniProt Q8WQ99); assay: pull-down; His::TF fusion protein from BL21 held on His-tag resin, incubated at 4°C overnight with the lysate supernatant of transfected HEK293T cells, 3 washes in TBST; Western blot; only the target purified
[4] = target: FLAG::CSNK-1 fusion protein (C. elegans) (UniProt Q8WQ99); assay: co-IP; HEK293T cells co-expressing both proteins, lysed in IP buffer; anti-FLAG antibody and protein A/G beads at 4°C overnight, 5 washes in TBST; blot with anti-HA and anti-FLAG

FLAG::CSNK1G2 fusion protein (from UniProt P78368 1-415) (enzyme)
binding [1]: binds

FLAG::CSNK-1 fusion protein (from UniProt Q8WQ99 1-407) (enzyme)
binding [2]: binds

B1: DOXA-1::HA fusion protein (protein, UniProt P34298 1-397)
chain: MWWFGGNPSPSDYPNAAIPNFNMHAFVIFSVFLIPLIAYILILPGVRRKRVVTTVTYVLMLAVGGALIASLIYPCWASGSQMIYTQFRGHSNERILAKIGVEIGLQKVNVTLKFERLLSSNDVLPGSDMTELYYNEGFDISGISSMAEALHHGLENGLPYPMLSVLEYFSLNQDSFDWGRHYRVAGHYTHAAIWFAFACWCLSVVLMLFLPHNAYKSILATGISCLIACLVYLLLSPCELRIAFTGENFERVDLTATFSFCFYLIFAIGILCVLCGLGLGICEHWRIYTLSTFLDASLDEHVGPKWKKLPTGGPALQGVQIGAYGTNTTNSSRDKNDISSDKTAGSSGFQSRTSTCQSSASSASLRSQSSIETVHDEAELERTHVHFLQEPCSSSST
binding [3]: binds | binding [4]: binds
